Paper PMC10828586
No constants are given. Whether binding was seen depends on the method and setting. Binding seen in cells or lysates may run through a third protein. Some results given as binding are weak or reduced against the parent protein; the word gives no strength.

The chains behind the UniProt entries cited, without tags or fusion partners.
UniProt Q9DBL9: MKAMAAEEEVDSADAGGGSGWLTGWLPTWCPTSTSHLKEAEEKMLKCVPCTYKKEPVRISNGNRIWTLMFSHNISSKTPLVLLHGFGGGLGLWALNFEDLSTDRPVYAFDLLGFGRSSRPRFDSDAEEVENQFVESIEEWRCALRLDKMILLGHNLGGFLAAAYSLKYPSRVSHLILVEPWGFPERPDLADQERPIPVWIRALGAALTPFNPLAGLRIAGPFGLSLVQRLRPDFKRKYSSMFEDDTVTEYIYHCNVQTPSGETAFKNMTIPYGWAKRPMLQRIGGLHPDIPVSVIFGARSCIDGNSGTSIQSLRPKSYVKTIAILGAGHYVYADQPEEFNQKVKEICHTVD

Target: FLAG-mCGI-58 (mouse) (UniProt Q9DBL9)
Assay: co-IP; HEK293T cotransfected with FLAG-mCGI-58 and Xpress-mATGL variants; lysis in 50 mM Tris-HCl pH 7.4, 150 mM NaCl, 1% NP-40, 1 mM EDTA; 2 mg lysate on Anti-FLAG M2 affinity gel, 4°C, 3 h; immunoblot with anti-Xpress and anti-FLAG

| Binder | binding |
| --- | --- |
| Xpress-mATGL, full-length, N209A/N215A (protein, UniProt Q8BJ56 1-486) MFPRETKWNISFAGCGFLGVYHIGVASCLREHAPFLVANATHIYGASAGALTATALVTGACLGEAGANIIEVSKEARKRFLGPLHPSFNLVKTIRGCLLKTLPADCHERANGRLGISLTRVSDGENVIISHFSSKDELIQANVCSTFIPVYCGLIPPTLQGVRYVDGGISDNLPLYELKNTITVSPFSGESDICPQDSSTNIHELRVTATSIQFALRNLYRLSKALFPPEPMVLREMCKQGYRDGLRFLRRNGLLNQPNPLLALPPVVPQEEDAEEAAVVEERAGEEDQLQPYRKDRILEHLPARLNEALLEACVEPKDLMTTLSNMLPVRLATAMMVPYTLPLESAVSFTIRLLEWLPDVPEDIRWMKEQTGSICQYLVMRAKRKLGDHLPSRLSEQVELRRAQSLPSVPLSCATYSEALPNWVRNNLSLGDALAKWEECQRQLLLGLFCTNVAFPPDALRMRAPASPTAADPATPQDPPGLPPC | binds |
| Xpress-mATGL, full-length, N209A/I212A/N215A (protein, UniProt Q8BJ56 1-486) MFPRETKWNISFAGCGFLGVYHIGVASCLREHAPFLVANATHIYGASAGALTATALVTGACLGEAGANIIEVSKEARKRFLGPLHPSFNLVKTIRGCLLKTLPADCHERANGRLGISLTRVSDGENVIISHFSSKDELIQANVCSTFIPVYCGLIPPTLQGVRYVDGGISDNLPLYELKNTITVSPFSGESDICPQDSSTNIHELRVTATSAQFALRNLYRLSKALFPPEPMVLREMCKQGYRDGLRFLRRNGLLNQPNPLLALPPVVPQEEDAEEAAVVEERAGEEDQLQPYRKDRILEHLPARLNEALLEACVEPKDLMTTLSNMLPVRLATAMMVPYTLPLESAVSFTIRLLEWLPDVPEDIRWMKEQTGSICQYLVMRAKRKLGDHLPSRLSEQVELRRAQSLPSVPLSCATYSEALPNWVRNNLSLGDALAKWEECQRQLLLGLFCTNVAFPPDALRMRAPASPTAADPATPQDPPGLPPC | binds |
| Xpress-mATGL288, WT (truncated after residue 288) (domain or fragment, UniProt Q8BJ56 1-288) MFPRETKWNISFAGCGFLGVYHIGVASCLREHAPFLVANATHIYGASAGALTATALVTGACLGEAGANIIEVSKEARKRFLGPLHPSFNLVKTIRGCLLKTLPADCHERANGRLGISLTRVSDGENVIISHFSSKDELIQANVCSTFIPVYCGLIPPTLQGVRYVDGGISDNLPLYELKNTITVSPFSGESDICPQDSSTNIHELRVTNTSIQFNLRNLYRLSKALFPPEPMVLREMCKQGYRDGLRFLRRNGLLNQPNPLLALPPVVPQEEDAEEAAVVEERAGEED | binds |
| Xpress-mATGL288 N209A/I212A/N215A (domain or fragment, UniProt Q8BJ56 1-288) MFPRETKWNISFAGCGFLGVYHIGVASCLREHAPFLVANATHIYGASAGALTATALVTGACLGEAGANIIEVSKEARKRFLGPLHPSFNLVKTIRGCLLKTLPADCHERANGRLGISLTRVSDGENVIISHFSSKDELIQANVCSTFIPVYCGLIPPTLQGVRYVDGGISDNLPLYELKNTITVSPFSGESDICPQDSSTNIHELRVTATSAQFALRNLYRLSKALFPPEPMVLREMCKQGYRDGLRFLRRNGLLNQPNPLLALPPVVPQEEDAEEAAVVEERAGEED | binds |
| Xpress-mATGL, full-length, N209A (protein, UniProt Q8BJ56 1-486) MFPRETKWNISFAGCGFLGVYHIGVASCLREHAPFLVANATHIYGASAGALTATALVTGACLGEAGANIIEVSKEARKRFLGPLHPSFNLVKTIRGCLLKTLPADCHERANGRLGISLTRVSDGENVIISHFSSKDELIQANVCSTFIPVYCGLIPPTLQGVRYVDGGISDNLPLYELKNTITVSPFSGESDICPQDSSTNIHELRVTATSIQFNLRNLYRLSKALFPPEPMVLREMCKQGYRDGLRFLRRNGLLNQPNPLLALPPVVPQEEDAEEAAVVEERAGEEDQLQPYRKDRILEHLPARLNEALLEACVEPKDLMTTLSNMLPVRLATAMMVPYTLPLESAVSFTIRLLEWLPDVPEDIRWMKEQTGSICQYLVMRAKRKLGDHLPSRLSEQVELRRAQSLPSVPLSCATYSEALPNWVRNNLSLGDALAKWEECQRQLLLGLFCTNVAFPPDALRMRAPASPTAADPATPQDPPGLPPC | binds |
| Xpress-mATGL, full-length, I212A (protein, UniProt Q8BJ56 1-486) MFPRETKWNISFAGCGFLGVYHIGVASCLREHAPFLVANATHIYGASAGALTATALVTGACLGEAGANIIEVSKEARKRFLGPLHPSFNLVKTIRGCLLKTLPADCHERANGRLGISLTRVSDGENVIISHFSSKDELIQANVCSTFIPVYCGLIPPTLQGVRYVDGGISDNLPLYELKNTITVSPFSGESDICPQDSSTNIHELRVTNTSAQFNLRNLYRLSKALFPPEPMVLREMCKQGYRDGLRFLRRNGLLNQPNPLLALPPVVPQEEDAEEAAVVEERAGEEDQLQPYRKDRILEHLPARLNEALLEACVEPKDLMTTLSNMLPVRLATAMMVPYTLPLESAVSFTIRLLEWLPDVPEDIRWMKEQTGSICQYLVMRAKRKLGDHLPSRLSEQVELRRAQSLPSVPLSCATYSEALPNWVRNNLSLGDALAKWEECQRQLLLGLFCTNVAFPPDALRMRAPASPTAADPATPQDPPGLPPC | binds |
| Xpress-mATGL, full-length, N215A (protein, UniProt Q8BJ56 1-486) MFPRETKWNISFAGCGFLGVYHIGVASCLREHAPFLVANATHIYGASAGALTATALVTGACLGEAGANIIEVSKEARKRFLGPLHPSFNLVKTIRGCLLKTLPADCHERANGRLGISLTRVSDGENVIISHFSSKDELIQANVCSTFIPVYCGLIPPTLQGVRYVDGGISDNLPLYELKNTITVSPFSGESDICPQDSSTNIHELRVTNTSIQFALRNLYRLSKALFPPEPMVLREMCKQGYRDGLRFLRRNGLLNQPNPLLALPPVVPQEEDAEEAAVVEERAGEEDQLQPYRKDRILEHLPARLNEALLEACVEPKDLMTTLSNMLPVRLATAMMVPYTLPLESAVSFTIRLLEWLPDVPEDIRWMKEQTGSICQYLVMRAKRKLGDHLPSRLSEQVELRRAQSLPSVPLSCATYSEALPNWVRNNLSLGDALAKWEECQRQLLLGLFCTNVAFPPDALRMRAPASPTAADPATPQDPPGLPPC | binds |
